Reference: the supplement of paper PMC10849652
Some of the results follow.

Sequences of proteins named here, by UniProt entry; tags and fusion partners are left off. A change or cut given only in a name is not applied to a line headed by its entry.
UniProt Q9BTE3: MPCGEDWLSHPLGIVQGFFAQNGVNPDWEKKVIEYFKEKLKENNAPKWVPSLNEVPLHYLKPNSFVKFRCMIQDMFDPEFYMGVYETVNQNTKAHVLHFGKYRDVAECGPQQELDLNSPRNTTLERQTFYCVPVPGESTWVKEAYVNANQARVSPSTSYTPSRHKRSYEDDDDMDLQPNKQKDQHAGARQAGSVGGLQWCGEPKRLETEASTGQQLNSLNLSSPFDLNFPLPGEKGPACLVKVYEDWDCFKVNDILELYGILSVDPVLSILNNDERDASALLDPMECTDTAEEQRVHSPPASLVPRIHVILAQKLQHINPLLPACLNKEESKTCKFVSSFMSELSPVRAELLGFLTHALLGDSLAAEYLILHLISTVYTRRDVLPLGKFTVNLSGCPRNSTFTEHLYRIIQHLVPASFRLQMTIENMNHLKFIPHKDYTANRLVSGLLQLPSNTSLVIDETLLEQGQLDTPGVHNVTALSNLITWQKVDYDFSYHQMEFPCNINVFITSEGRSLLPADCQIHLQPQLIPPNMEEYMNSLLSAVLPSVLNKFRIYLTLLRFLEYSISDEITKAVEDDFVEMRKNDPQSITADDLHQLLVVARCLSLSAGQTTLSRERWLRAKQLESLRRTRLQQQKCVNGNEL
UniProt Q86XA0: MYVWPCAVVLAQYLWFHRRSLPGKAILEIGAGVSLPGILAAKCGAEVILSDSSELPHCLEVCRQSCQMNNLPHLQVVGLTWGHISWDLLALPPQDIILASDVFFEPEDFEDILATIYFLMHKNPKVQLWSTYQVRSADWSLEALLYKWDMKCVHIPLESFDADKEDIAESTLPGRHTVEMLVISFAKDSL
UniProt Q9ULK4: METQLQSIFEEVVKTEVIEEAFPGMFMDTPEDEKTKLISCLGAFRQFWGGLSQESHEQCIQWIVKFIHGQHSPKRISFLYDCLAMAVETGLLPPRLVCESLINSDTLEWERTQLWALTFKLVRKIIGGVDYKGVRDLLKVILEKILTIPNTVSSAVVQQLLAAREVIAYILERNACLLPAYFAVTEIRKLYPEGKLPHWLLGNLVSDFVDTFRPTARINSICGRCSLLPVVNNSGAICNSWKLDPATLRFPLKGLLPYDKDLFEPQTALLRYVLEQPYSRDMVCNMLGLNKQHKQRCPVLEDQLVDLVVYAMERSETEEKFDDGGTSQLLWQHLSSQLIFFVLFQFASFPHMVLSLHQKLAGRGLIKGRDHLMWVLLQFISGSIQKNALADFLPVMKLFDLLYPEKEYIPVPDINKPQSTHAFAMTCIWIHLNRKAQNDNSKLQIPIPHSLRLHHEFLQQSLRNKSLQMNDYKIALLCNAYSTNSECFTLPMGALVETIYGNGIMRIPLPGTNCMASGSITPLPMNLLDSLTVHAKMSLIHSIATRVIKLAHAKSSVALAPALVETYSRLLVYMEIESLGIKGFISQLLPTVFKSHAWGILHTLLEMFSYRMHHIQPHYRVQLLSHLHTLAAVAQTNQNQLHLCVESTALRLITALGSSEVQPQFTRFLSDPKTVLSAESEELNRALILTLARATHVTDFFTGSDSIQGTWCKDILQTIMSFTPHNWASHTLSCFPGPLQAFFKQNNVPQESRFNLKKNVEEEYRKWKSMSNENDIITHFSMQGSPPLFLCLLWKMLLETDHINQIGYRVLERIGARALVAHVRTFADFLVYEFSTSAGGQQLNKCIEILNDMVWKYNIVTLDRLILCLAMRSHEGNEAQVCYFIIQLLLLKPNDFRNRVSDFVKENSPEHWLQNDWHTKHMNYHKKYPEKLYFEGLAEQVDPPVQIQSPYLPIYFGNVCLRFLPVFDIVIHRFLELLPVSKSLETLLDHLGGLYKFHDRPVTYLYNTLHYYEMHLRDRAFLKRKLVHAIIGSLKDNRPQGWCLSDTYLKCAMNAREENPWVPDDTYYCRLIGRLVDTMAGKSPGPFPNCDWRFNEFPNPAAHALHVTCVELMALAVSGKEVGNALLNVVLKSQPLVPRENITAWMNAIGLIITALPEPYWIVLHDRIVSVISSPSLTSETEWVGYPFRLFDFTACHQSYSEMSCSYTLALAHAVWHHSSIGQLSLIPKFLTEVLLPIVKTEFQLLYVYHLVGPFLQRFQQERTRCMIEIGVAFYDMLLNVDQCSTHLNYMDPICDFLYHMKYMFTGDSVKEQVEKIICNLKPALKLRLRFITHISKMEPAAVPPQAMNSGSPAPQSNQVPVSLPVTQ
UniProt Q9Y4C4: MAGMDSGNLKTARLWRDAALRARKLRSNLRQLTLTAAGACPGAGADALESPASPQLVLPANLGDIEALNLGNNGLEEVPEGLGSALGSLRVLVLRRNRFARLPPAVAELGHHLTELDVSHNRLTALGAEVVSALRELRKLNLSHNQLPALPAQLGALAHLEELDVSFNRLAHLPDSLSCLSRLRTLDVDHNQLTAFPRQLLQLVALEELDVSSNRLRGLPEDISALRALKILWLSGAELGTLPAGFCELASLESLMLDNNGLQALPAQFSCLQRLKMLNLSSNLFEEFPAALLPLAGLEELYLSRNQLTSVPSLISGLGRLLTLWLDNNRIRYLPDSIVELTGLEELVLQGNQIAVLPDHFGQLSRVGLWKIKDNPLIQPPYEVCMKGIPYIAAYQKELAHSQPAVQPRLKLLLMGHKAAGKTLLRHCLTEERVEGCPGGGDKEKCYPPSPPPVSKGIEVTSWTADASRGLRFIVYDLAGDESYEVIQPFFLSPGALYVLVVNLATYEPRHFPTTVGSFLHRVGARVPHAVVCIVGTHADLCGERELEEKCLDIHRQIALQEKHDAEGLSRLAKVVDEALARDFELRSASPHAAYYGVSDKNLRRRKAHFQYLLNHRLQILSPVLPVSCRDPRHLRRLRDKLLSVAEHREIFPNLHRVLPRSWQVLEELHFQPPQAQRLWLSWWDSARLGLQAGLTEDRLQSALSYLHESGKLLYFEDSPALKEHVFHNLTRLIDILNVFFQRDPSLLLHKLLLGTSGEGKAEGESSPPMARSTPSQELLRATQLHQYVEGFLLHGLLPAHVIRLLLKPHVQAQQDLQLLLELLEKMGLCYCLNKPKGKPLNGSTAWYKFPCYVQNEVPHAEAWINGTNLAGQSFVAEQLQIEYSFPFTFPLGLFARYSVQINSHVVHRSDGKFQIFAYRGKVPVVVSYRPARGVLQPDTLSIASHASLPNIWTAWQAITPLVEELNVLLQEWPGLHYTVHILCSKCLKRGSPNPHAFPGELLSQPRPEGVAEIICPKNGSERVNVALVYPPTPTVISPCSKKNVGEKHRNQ
UniProt Q14703: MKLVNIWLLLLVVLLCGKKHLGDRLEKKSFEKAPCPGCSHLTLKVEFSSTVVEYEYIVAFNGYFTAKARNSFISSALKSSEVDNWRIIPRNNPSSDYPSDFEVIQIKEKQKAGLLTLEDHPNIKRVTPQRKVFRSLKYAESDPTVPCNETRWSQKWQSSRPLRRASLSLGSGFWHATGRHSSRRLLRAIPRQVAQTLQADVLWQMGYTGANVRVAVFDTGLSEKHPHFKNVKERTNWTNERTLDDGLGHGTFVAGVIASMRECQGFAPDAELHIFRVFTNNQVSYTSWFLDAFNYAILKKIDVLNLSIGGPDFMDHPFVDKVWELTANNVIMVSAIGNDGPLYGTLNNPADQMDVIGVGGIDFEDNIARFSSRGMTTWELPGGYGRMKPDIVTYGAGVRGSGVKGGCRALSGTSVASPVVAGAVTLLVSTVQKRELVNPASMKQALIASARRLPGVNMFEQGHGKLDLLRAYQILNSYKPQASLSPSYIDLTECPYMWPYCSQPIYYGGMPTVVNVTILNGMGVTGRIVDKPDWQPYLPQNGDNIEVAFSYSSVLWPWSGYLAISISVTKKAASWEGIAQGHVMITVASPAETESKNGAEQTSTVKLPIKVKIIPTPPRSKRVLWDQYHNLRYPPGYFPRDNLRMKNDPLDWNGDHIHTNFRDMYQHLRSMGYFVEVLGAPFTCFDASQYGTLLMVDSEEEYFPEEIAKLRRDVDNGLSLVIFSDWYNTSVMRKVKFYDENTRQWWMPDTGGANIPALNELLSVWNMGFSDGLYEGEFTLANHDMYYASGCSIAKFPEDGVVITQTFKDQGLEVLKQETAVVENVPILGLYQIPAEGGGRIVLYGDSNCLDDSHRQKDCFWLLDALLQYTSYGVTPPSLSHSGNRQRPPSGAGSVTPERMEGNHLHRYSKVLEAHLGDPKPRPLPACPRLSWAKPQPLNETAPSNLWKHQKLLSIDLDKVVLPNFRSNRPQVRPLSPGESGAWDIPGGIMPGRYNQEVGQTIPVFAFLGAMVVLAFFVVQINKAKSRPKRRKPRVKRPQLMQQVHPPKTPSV
UniProt P08582: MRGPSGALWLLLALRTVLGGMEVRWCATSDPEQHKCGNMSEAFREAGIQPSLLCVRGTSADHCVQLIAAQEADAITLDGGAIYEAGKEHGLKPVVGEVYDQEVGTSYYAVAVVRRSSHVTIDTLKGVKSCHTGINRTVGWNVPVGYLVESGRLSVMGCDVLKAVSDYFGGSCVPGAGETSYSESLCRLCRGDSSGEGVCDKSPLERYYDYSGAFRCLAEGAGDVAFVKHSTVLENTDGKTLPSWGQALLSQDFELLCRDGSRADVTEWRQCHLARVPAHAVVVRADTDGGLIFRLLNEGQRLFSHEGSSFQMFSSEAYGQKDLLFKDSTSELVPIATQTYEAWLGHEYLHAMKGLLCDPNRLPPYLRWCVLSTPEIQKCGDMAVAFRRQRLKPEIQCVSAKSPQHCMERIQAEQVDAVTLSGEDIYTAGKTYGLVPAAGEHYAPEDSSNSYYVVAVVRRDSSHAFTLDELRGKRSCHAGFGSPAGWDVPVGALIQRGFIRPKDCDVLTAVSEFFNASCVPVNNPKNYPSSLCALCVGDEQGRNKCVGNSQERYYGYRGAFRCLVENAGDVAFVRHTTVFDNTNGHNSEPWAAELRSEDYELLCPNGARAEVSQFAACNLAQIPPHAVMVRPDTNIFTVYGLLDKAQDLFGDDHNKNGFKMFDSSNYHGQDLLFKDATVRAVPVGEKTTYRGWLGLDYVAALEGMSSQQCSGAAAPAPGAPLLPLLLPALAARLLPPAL
UniProt Q6UB28: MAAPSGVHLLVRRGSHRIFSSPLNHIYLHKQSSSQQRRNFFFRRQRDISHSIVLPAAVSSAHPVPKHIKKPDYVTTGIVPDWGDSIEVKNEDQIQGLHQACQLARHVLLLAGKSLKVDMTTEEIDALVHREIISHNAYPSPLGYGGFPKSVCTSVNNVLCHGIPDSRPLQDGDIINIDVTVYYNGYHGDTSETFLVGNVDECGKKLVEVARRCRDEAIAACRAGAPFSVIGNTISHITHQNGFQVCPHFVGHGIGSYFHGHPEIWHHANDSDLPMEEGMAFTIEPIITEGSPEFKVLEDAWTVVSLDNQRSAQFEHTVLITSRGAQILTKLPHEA
UniProt P40925: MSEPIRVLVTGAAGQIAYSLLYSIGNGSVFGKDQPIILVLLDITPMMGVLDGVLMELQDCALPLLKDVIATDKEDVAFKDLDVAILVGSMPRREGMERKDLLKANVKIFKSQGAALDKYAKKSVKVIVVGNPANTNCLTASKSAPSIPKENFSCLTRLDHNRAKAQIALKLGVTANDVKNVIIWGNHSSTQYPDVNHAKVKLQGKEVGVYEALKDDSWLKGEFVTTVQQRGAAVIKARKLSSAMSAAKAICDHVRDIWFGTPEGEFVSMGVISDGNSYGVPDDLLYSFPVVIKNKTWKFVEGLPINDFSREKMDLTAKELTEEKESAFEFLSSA
UniProt A4D2B0: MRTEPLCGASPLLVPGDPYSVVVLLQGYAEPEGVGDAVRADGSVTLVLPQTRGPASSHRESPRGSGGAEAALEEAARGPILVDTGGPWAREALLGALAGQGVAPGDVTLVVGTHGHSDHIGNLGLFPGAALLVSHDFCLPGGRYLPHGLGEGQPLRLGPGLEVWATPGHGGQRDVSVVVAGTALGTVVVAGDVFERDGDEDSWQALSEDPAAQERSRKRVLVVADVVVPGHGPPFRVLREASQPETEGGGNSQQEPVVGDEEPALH
UniProt Q8N6Q8: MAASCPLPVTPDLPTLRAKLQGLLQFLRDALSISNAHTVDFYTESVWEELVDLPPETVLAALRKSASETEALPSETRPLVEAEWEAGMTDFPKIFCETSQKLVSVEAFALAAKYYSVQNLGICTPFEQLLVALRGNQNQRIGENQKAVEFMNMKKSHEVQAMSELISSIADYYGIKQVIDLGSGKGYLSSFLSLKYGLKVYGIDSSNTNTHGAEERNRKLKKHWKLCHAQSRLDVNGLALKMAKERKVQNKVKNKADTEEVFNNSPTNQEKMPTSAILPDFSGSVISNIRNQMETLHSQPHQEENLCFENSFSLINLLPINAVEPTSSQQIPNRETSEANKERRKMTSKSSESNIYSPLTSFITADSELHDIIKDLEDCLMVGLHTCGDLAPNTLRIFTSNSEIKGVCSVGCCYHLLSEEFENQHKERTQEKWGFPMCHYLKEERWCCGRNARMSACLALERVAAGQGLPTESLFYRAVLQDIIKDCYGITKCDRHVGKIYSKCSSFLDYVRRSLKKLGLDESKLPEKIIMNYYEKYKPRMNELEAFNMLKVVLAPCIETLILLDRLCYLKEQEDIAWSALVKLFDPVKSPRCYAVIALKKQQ

Columns and labels:
Assay in all cases: log2 fold change, soluble protein after heating vs DMSO (PISA); higher = thermal stabilisation; K562 lysate, 10 uM; active = over 0.2 and 3.5 SD of the protein, either way, in both replicates (recomputed)
vemurafenib = compound: CCCS(=O)(=O)Nc1ccc(F)c(C(=O)c2c[nH]c3ncc(-c4ccc(Cl)cc4)cc23)c1F [vemurafenib]
In short: (§1)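 To prepare the extract, K562 pellets were dounce-homogenised in PBS pH 7.4 with 1 mM MgCl2, giving crude material at 1 mg/mL protein. This was treated with 10 μM compound for 30 min, then heated in aliquots for 3 min over 48°C-58°C before pooling and addition of NP-40 to 0.5% at 4°C. Centrifugation at 21,000xg for 90 min left soluble protein in the supernatant, which TMTpro 16plex LC-MS/MS quantified with equalised channel sums. Results are log-two fold changes in thermal stability compared with solvent controls, from duplicates.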

[1] = compound: CCCS(=O)(=O)Nc1ccc(F)c(C(=O)c2c[nH]c3ncc(Cl)cc23)c1F
In short: as §1

barasertib = compound: CCN(CCCOc1ccc2c(Nc3cc(CC(=O)Nc4cccc(F)c4)[nH]n3)ncnc2c1)CCOP(=O)(O)O [barasertib]
In short: as §1

[2] = compound: CC[C@@H]1C(=O)N(C)c2cnc(Nc3ccc(C(=O)NC4CCN(C)CC4)cc3OC)nc2N1C1CCCC1
In short: as §1

volasertib = compound: CC[C@@H]1C(=O)N(C)c2cnc(Nc3ccc(C(=O)N[C@H]4CC[C@H](N5CCN(CC6CC6)CC5)CC4)cc3OC)nc2N1C(C)C [volasertib]
In short: as §1

[3] = compound: CCn1c(C(=O)N(C2CC2)C2CC2)cc2c3c(ncn3C)c(Nc3cc(C)n(C)n3)nc21
In short: as §1

[4] = compound: CCn1cc(-c2ccnc3[nH]c(-c4cccc(CN(C)C)c4)cc23)c(-c2ccc(NC(=O)N(C)C)cc2)n1
In short: as §1

[5] = compound: CN1CCC(CNc2ccc3ncc(-c4cccc(OC(F)(F)F)c4)n3n2)CC1
In short: as §1

saracatinib = compound: CN1CCN(CCOc2cc(OC3CCOCC3)c3c(Nc4c(Cl)ccc5c4OCO5)ncnc3c2)CC1 [saracatinib]
In short: as §1

sotrastaurin = compound: CN1CCN(c2nc(C3=C(c4c[nH]c5ccccc45)C(=O)NC3=O)c3ccccc3n2)CC1 [sotrastaurin]
In short: as §1

alvocidib = compound: CN1CC[C@H](c2c(O)cc(O)c3c(=O)cc(-c4ccccc4Cl)oc23)[C@H](O)C1 [alvocidib]
In short: as §1

Tubastatin A = compound: CN1CCc2c(c3ccccc3n2Cc2ccc(C(=O)NO)cc2)C1 [Tubastatin A]
In short: as §1

[6] = compound: CNC(=O)C1=CC=CC=C1NC2=NC(=NC=C2Cl)NC3=C(C=C(C=C3)N4CCOCC4)OC
In short: as §1

defactinib = compound: CNC(=O)c1ccc(Nc2ncc(C(F)(F)F)c(NCc3nccnc3N(C)S(C)(=O)=O)n2)cc1 [defactinib]
In short: as §1

[7] = compound: CNc1nc(-c2ccc3c(N)n[nH]c3c2)cc(N2C[C@@H](C(=O)NC3CCCCC3)CC[C@H]2C)n1
In short: as §1

encorafenib = compound: COC(=O)N[C@@H](C)CNc1nccc(-c2cn(C(C)C)nc2-c2cc(Cl)cc(NS(C)(=O)=O)c2F)n1 [encorafenib]
In short: as §1

[8] = compound: COC(=O)[C@H](CCSC)NC(=O)C1=C(C=C(C=C1)NC[C@H](CS)N)C2=CC=CC=C2
In short: as §1

alisertib = compound: COc1cc(Nc2ncc3c(n2)-c2ccc(Cl)cc2C(c2c(F)cccc2OC)=NC3)ccc1C(=O)O [alisertib]
In short: as §1

[9] = compound: COc1cc2nc(-c3cc(F)ccc3O)nc(N[C@@H]3CNC[C@H]3C(C)(C)O)c2cc1OC
In short: as §1

gefitinib = compound: COc1cc2ncnc(Nc3ccc(F)c(Cl)c3)c2cc1OCCCN1CCOCC1 [gefitinib]
In short: as §1

Measured: log2 fold change

METTL14 (UniProt Q9HCE5)
inactive: vemurafenib -0.035 | [1] -0.004 | barasertib -0.048 | [2] 0.018 | volasertib -0.016 | [3] 0.038 | [4] 0.21 | [5] -0.036 | saracatinib 0.024 | sotrastaurin 0.055 | alvocidib 0.022 | Tubastatin A 0.009 | [6] 0.058 | defactinib -0.004 | [7] 0.023 | encorafenib 0.026 | [8] -0.05 | alisertib -0.021 | [9] 0.005 | gefitinib -0.002

MCRS1 isoform 2 (UniProt Q96EZ8)
inactive: vemurafenib 0.103 | barasertib 0.18 | [4] 0.02 | [5] -0.081 | alvocidib 0.147 | defactinib -0.203

MCMBP isoform 2 (UniProt Q9BTE3)
inactive: vemurafenib -0.039 | [1] 0.081 | barasertib -0.096 | [2] 0.059 | volasertib -0.004 | [3] 0.047 | saracatinib -0.036 | sotrastaurin -0.015 | Tubastatin A -0.142 | [6] 0.102 | defactinib 0.089 | [7] 0.199 | encorafenib -0.015 | [8] 0.124 | alisertib 0.067 | [9] -0.091 | gefitinib -0.082

METTL23 (UniProt Q86XA0)
inactive: vemurafenib 0.121 | [1] -0.066 | [2] 0.201 | volasertib 0.135 | defactinib 0.064 | encorafenib -0.059 | [8] 0.034 | alisertib -0.132 | [9] 0.083 | gefitinib -0.279

MCM3AP (UniProt O60318)
inactive: vemurafenib 0.054 | [1] 0.011 | barasertib 0.263 | volasertib 0.027 | [3] 0.047 | [4] -0.024 | [5] -0.246 | saracatinib 0.054 | alvocidib 0.133 | Tubastatin A -0.11 | [6] -0.041 | defactinib -0.109 | [7] 0.071 | alisertib 0.075 | [9] 0.122 | gefitinib 0.101

MED23 (UniProt Q9ULK4)
inactive: vemurafenib 0.018 | [1] 0.004 | barasertib -0.016 | [2] -0.004 | volasertib -0.041 | [3] 0.029 | [4] -0.027 | [5] -0.015 | saracatinib 0.041 | sotrastaurin -0.006 | alvocidib -0.013 | Tubastatin A -0.074 | [6] 0.033 | defactinib 0.012 | [7] -0.021 | encorafenib -0.008 | [8] -0.003 | alisertib 0.013 | [9] -0.01 | gefitinib 0.026

MFHAS1 (UniProt Q9Y4C4)
inactive: vemurafenib 0.005 | [1] 0.12 | barasertib -0.099 | volasertib 0.087 | [3] -0.051 | saracatinib 0.081 | sotrastaurin -0.108 | Tubastatin A 0.214 | [6] -0.072 | defactinib 0.024 | [7] 0.211 | [9] 0.016

MBTPS1 (UniProt Q14703)
inactive: vemurafenib 0.247 | barasertib 0.199 | [2] 0.034 | [3] 0.003 | [4] 0.211 | [5] -0.185 | saracatinib -0.031 | sotrastaurin -0.014 | alvocidib 0.096 | Tubastatin A -0.058 | [6] 0.013 | defactinib -0.002 | [7] 0.029 | encorafenib 0.048 | [8] -0.036

MELTF (UniProt P08582)
inactive: vemurafenib 0.032 | barasertib -0.026 | [2] 0.043 | [4] 0.097 | [5] 0.037 | sotrastaurin 0.174 | alvocidib 0.025 | [6] 0.079 | defactinib 0.031 | encorafenib 0.02 | [8] 0.045

METAP1D (UniProt Q6UB28)
inactive: vemurafenib 0 | [1] -0.051 | barasertib -0.007 | [2] 0.149 | volasertib -0.019 | [3] -0.019 | [4] -0.034 | [5] 0.001 | saracatinib 0.049 | sotrastaurin -0.089 | alvocidib -0.016 | Tubastatin A 0.009 | [6] -0.08 | defactinib -0.035 | [7] 0.081 | encorafenib 0.015 | [8] -0.065 | alisertib 0.008 | [9] 0.076 | gefitinib 0.12

MDH1 isoform 3 (UniProt P40925)
inactive: vemurafenib -0.01 | [1] -0.024 | barasertib -0.015 | [2] -0.005 | volasertib 0.032 | [3] -0.022 | [4] 0.009 | [5] -0.014 | saracatinib -0.044 | sotrastaurin -0.047 | alvocidib 0.011 | Tubastatin A 0.067 | [6] 0.012 | defactinib -0.071 | [7] 0.016 | encorafenib -0.057 | [8] 0.006 | alisertib 0.017 | [9] 0.008 | gefitinib -0.013

MECR (UniProt Q9BV79)
inactive: vemurafenib 0.055 | [1] 0.035 | barasertib 0.008 | [2] -0.05 | volasertib -0.008 | [3] 0.004 | [4] -0.043 | [5] 0.023 | saracatinib 0.095 | sotrastaurin -0.007 | alvocidib 0.018 | Tubastatin A 0.014 | [6] 0.01 | defactinib 0.007 | [7] 0.053 | encorafenib -0.06 | [8] 0.049 | alisertib 0 | [9] 0.04 | gefitinib -0.011

METTL6 (UniProt Q8TCB7)
inactive: vemurafenib -0.091 | [1] 0.059 | barasertib 0.155 | [2] 0.089 | volasertib -0.057 | [3] 0.263 | [4] -0.015 | [5] 0.042 | saracatinib -0.022 | sotrastaurin 0.031 | alvocidib -0.098 | Tubastatin A -0.362 | defactinib -0.034 | [7] 0.122 | encorafenib -0.028 | [8] -0.145 | [9] 0.021

MEF2A isoform 2 (UniProt Q02078)
inactive: vemurafenib 0.065 | [1] 0.07 | barasertib -0.013 | volasertib 0.017 | [3] -0.002 | [4] -0.071 | [5] 0.024 | sotrastaurin 0.01 | alvocidib -0.033 | Tubastatin A 0.002 | [6] -0.009 | defactinib -0.047 | alisertib -0.002 | [9] 0 | gefitinib 0.068

MBLAC1 (UniProt A4D2B0)
inactive: vemurafenib 0.078 | [1] 0.063 | [2] -0.092 | volasertib 0.036 | [4] -0.003 | [5] 0.06 | alvocidib -0.014 | [6] 0.126 | defactinib 0.051 | encorafenib -0.024 | [8] 0.045 | [9] 0.085

MED26 (UniProt O95402)
inactive: vemurafenib -0.008 | [1] 0.01 | barasertib 0.035 | [2] -0.018 | volasertib -0.031 | [3] -0.048 | [4] -0.215 | [5] 0.088 | sotrastaurin -0.001 | alvocidib 0.066 | Tubastatin A 0.094 | [6] -0.081 | defactinib 0.078 | encorafenib 0.146 | [8] -0.109 | alisertib -0.094 | [9] -0.002 | gefitinib 0.088

MED6 (UniProt O75586)
inactive: vemurafenib 0.029 | [1] -0.036 | barasertib -0.103 | [2] -0.022 | volasertib 0.021 | [3] 0.048 | [4] -0.03 | [5] 0.031 | saracatinib -0.031 | sotrastaurin 0 | alvocidib -0.046 | Tubastatin A -0.118 | defactinib -0.058 | [7] 0.056 | encorafenib 0.045 | [8] 0.136 | [9] -0.031

MEGF9 (UniProt Q9H1U4)
inactive: vemurafenib 0.003 | barasertib 0.036 | [2] 0.265 | [3] -0.029 | [4] 0.265 | [5] -0.014 | saracatinib 0.124 | alvocidib -0.107 | Tubastatin A -0.003 | [6] -0.055 | defactinib 0.031 | [7] 0.078 | encorafenib 0.097 | [8] -0.064

MFSD8 (UniProt Q8NHS3)
inactive: vemurafenib 0.036 | [1] 0.088 | barasertib 0.186 | volasertib -0.023 | [3] 0.017 | [4] -0.14 | [5] 0.07 | sotrastaurin 0.054 | alvocidib 0.025 | Tubastatin A -0.059 | [6] -0.088 | defactinib -0.005 | alisertib -0.134 | [9] -0.13 | gefitinib -0.121

METTL25 (UniProt Q8N6Q8)
inactive: vemurafenib 0.165 | [1] 0.027 | barasertib 0.025 | [2] 0.143 | volasertib 0.079 | [3] 0.055 | saracatinib 0.004 | Tubastatin A -0.035 | defactinib -0.017 | [7] -0.021 | encorafenib 0.083 | [8] -0.03 | [9] -0.051

MEN1 (UniProt O00255)
inactive: vemurafenib 0.03 | [1] 0.242 | [2] 0.012 | volasertib 0.054 | [3] -0.172 | saracatinib 0.059 | sotrastaurin -0.362 | Tubastatin A -0.132 | [6] -0.026 | defactinib 0.061 | [7] 0.008 | encorafenib -0.119 | [8] -0.033 | alisertib -0.364 | [9] -0.103 | gefitinib 0.167
